The source of these data is paper PMC5767185, “Arabidopsis G-Protein β Subunit AGB1 Interacts with BES1 to Regulate Brassinosteroid Signaling and Cell Elongation” (Frontiers in Plant Science, 2017).

Amino acid sequences for entries named in this document (tags omitted).
UniProt Q9LN63: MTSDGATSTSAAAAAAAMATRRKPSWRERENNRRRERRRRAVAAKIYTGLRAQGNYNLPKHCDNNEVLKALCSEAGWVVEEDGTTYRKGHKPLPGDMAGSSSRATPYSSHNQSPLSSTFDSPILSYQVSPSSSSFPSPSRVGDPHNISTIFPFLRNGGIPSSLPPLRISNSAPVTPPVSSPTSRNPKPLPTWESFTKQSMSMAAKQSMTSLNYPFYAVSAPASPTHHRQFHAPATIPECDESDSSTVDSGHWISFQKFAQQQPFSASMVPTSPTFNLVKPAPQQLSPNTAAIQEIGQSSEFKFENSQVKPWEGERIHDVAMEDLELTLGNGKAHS
UniProt P0A850: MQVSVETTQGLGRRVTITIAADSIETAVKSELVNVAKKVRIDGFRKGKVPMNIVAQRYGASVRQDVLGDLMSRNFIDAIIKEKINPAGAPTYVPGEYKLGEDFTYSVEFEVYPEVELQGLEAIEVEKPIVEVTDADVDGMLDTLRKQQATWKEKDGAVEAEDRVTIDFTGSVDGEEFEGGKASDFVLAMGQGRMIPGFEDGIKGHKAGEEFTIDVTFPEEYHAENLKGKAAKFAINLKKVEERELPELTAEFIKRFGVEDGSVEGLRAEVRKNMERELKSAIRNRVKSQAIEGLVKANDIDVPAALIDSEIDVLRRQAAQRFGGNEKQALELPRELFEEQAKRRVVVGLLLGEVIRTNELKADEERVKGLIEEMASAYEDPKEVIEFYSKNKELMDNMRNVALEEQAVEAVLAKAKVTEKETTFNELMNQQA

Results are given in words; binding and its absence hold for the method and conditions named. For some of these results: Binding seen in cells or lysates may run through a third protein. Some entries that bind do so weakly or less than the wild type. For some of these results: Sequences can lack the tags named with a protein.

One test concerns the target T1, GST-AGB1 (Arabidopsis) (UniProt P49177).
T1 sequence: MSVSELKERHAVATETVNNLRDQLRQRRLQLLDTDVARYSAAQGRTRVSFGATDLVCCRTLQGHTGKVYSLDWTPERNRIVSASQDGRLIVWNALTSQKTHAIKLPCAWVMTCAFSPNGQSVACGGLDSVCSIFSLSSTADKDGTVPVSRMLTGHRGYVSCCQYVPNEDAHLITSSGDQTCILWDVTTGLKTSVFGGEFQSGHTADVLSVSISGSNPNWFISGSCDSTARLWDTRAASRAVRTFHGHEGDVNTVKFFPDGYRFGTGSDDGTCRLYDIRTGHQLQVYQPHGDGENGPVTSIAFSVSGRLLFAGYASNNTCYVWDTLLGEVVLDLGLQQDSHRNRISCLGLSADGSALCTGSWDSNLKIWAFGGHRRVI
Description: pull-down; semi-in vivo: GST-AGB1 or GST on glutathione Sepharose beads, incubated 2 h at 4°C with extracts of 35S::BES1-GFP-Flag Arabidopsis seedlings treated with 2 μM BL for 2 h; 50 mM Tris–HCl pH 7.5, 150 mM NaCl, 1 mM EDTA, 10% glycerol, 0.2% Triton X-100; detected with anti-Flag antibody; only the target purified.

For another test, the target named is GST-BES1 (Arabidopsis) (UniProt Q9LN63). The experiment in a line: pull-down; GST-BES1 held on glutathione beads (MagneGST), His-AGB1 or His-TF added, lysis buffer without EDTA, 2 h at 4°C; prey detected with anti-His antibody; both purified.
The target in test [1] is GAL4 DNA-binding domain (BD) fused to full-length BES1 (Arabidopsis) (UniProt Q9LN63). The experiment in a line: two-hybrid; GAL4 system, pGBKT7 baits (BES1 and deletions) and pGADT7 prey (AGB1) in strain AH109; growth on SD-T-L-H-A plates, 5 days.
The target in test [2] is T2, BIM1 (LexA yeast two-hybrid fusion) (Arabidopsis) (UniProt Q9LEZ3).
T2 sequence: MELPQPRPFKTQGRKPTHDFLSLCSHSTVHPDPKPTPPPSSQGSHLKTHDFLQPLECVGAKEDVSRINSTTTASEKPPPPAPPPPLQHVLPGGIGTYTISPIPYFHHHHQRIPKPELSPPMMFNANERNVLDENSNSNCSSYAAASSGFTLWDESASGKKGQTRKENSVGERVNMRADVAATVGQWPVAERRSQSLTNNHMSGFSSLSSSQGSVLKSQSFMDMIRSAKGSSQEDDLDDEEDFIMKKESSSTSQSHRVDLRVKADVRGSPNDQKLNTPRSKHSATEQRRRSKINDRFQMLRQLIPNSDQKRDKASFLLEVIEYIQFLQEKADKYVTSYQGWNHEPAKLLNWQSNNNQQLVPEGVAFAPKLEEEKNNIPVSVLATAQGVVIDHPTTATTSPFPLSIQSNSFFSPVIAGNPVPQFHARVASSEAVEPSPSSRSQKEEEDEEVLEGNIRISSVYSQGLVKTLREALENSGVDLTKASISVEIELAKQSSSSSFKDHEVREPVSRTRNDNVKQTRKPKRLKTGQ
The experiment in a line: two-hybrid; LexA system, pLexA and pB42AD fusions with p8op-LacZ in strain EGY48; β-galactosidase activity and plate assay.

“BES1–GFP–Flag (from UniProt Q9LN63 1-335)”: the binding result with GST-AGB1 (Arabidopsis) is given as “binds”.

For the molecule “histidine-tagged trigger factor (His-TF) (from UniProt P0A850 1-432)”, in the test with GST-BES1 (Arabidopsis), the binding entry is reported as “no binding”.

B1: GAL4 AD fused to full-length AGB1 (AD-AGB1) (protein, UniProt P49177 1-377)
chain: T1 sequence
With B1, the binding result in test [1] was “binds”.

B2: full-length AGB1 (LexA yeast two-hybrid fusion) (protein, UniProt P49177 1-377)
chain: T1 sequence
Consider B2, for which, in test [2], the binding entry is “binds”.
